Binding data for two substances are collected here from paper doi:10.1101/2023.03.03.531038.

Results are given in words; binding and its absence hold for the method and conditions named. Binding seen in cells or lysates may run through a third protein. For some assays here: Binding calls can cover weak binding; strength is not graded here.

Holding throughout (assay): split reporter
Assay [1] concerns the target T1, PEX11D (BiFC construct) (Arabidopsis thaliana) (UniProt O80845).
T1 sequence: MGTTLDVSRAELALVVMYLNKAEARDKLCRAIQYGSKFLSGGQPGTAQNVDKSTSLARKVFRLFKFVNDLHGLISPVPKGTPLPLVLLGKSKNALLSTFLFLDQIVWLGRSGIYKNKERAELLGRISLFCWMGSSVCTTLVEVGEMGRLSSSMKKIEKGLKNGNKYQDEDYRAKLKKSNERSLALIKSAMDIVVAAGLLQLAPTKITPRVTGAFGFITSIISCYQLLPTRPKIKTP

In assay [2] the target is T2, PEX19-1 (BiFC construct) (Arabidopsis thaliana) (UniProt Q9SRQ3).
T2 sequence: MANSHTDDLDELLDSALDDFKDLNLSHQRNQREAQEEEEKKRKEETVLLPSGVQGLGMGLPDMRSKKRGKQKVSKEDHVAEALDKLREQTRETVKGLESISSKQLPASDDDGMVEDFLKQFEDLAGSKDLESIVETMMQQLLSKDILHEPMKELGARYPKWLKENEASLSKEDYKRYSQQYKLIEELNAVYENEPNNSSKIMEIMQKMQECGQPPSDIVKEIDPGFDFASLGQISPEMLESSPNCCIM

The target in assay [3] is T3, TOM20-2 (BiFC construct) (Arabidopsis thaliana) (UniProt P82873).
T3 sequence: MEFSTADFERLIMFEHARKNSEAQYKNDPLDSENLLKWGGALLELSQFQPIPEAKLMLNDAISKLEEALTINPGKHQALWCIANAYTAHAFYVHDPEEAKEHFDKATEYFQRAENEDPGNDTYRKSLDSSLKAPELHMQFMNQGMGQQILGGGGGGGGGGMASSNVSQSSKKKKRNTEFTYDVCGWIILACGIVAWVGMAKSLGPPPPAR

Regarding cYFP-NAC4 (Arabidopsis thaliana), the results for the binding result in assay [1], in assay [2] and in assay [3] were “binds”, “no binding” and “binds weakly”, respectively.

For the substance cYFP-RPL11 (Arabidopsis thaliana), the binding entry in assay [1] is reported as “binds”; in assay [2], “no binding”.
